Data on six compounds can be found in US20110305911A1, “ARTICLE HAVING ANTIFOULING PROPERTIES AND INTENDED TO BE USED IN AQUATIC APPLICATIONS, PARTICULARLY MARINE APPLICATIONS” (BLUESTAR SILICONES FRANCE, priority 2008, published 2011).

The first data set is described as follows: Catalyst activity test: crosslinking of α,ω-dihydroxylated oil with ethyl silicate. The conditions noted are these: after 24 h; 4.48 g 48V100 oil, 1.24 mmol catalyst, 0.52 g ethyl silicate.
`CC(C)(C)C(=O)C=C([O-])C(C)(C)C.CC(C)(C)C(=O)C=C([O-])C(C)(C)C.[Zn+2]` [Catalyst (3), Zn(DPM)2]: the “Hard/liquid after 24 h” value is “hard”.
On the same count and under the same terms, in the case of “[Zn (isopropyl aceto-acetato)2] [Catalyst (5)]” it was “hard”.
Still for that read-out and setting: in the case of `CCOC(=O)C=C(C)[O][Zn][O]C(C)=CC(=O)OCC` [Catalyst (4), [Zn (EAA)2]] it was “hard”; in that of `CC(=O)C=C(C)[O-].CC(=O)C=C(C)[O-].O.[Zn+2]` [Comparative 2, zinc diacetylacetonate, reference compound], “hard”.
On the same count and under the same terms, the value for “tetrabutyldistannoxane dilaurate [Comparative 1, reference compound]” was “hard”.

Staying with this data set, now noted: corresponds to viscosity of approx. 1000 cP; 4.48 g 48V100 oil, 1.24 mmol catalyst, 0.52 g ethyl silicate, 300 rpm.
Regarding `CCCCC(CC)C(=O)[O-].CCCCC(CC)C(=O)[O-].[Zn+2]` (stereo not drawn) [Comparative 3, Zn(2-ethylhexanoate)2, reference compound], the “Time when stirring stops” value is given as 30 h.
